Results are given in words; binding and its absence hold for the method and conditions named. Some entries that bind do so weakly or less than the wild type.
Columns and labels:
[1] = molecular target: TREM2-IgSF-TREM1 stalk chimeric protein expressed in CHO-hDAP12 cells (human) (UniProt Q9NP99); assay: FACS on CHO cells
[2] = molecular target: T1, TREM2 (isoform 3) expressed on HEK293 cells of the plasma membrane protein cell array (human); assay: HEK293 cell array, 2 ug/ml
T1 sequence: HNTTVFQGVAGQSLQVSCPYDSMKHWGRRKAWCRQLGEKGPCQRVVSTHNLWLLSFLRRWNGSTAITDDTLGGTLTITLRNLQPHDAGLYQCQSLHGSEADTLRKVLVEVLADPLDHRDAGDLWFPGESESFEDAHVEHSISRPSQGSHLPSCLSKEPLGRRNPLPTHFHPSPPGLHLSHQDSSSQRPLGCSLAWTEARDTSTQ

binding [1]: binds
binding [2]: binds
B1: MOR044746 (antibody, V domains shown)
VH: QVQLQQSGPGLVKPSQTLSLTCAISGDSVSSSSAAWNWIRQSPSRGLEWLGHIGYRSKWYNEYAVSVKSRITINPDTSKNQFSLQLNSVTPEDTAVYYCARGMYGSVPYKEGYYFDIWGQGTLVTVSS
VL: DIQMTQSPSSLSASVGDRVTITCRASQGISSDLNWYQQKPGKAPKLLIYAASNLQSGVPSRFSGSGSGTDFTLTISSLQPEDFATYYCQQYTDESMTFGQGTKVEIK
notes: light chain 63); Human IgG vector of the campaign: IgG1f LALA; Matured from MOR042493; VH6 k1; also called MOR44746

From patent US20250215080A1 (published 2025)
